Data published in article PMC12196469 (Pharmaceutics, 2025).

Assay: general procedure: Fmoc solid-phase peptide synthesis; H-His(Trt)-2-Cl-Trt Resin; HATU/DIPEA
Conditions: whole synthesis

N3-PEG4-Cys-PEG3-HAIYPRH
crude yield: 48%
